Measurements published in publication PMC2855512.
No constants are given. Whether binding was seen depends on the method and setting. In cells and extracts the contact can be indirect. Some results given as binding are weak or reduced against the parent protein; the word gives no strength.

Protein sequences, listed by entry. Tags and fused reporters are not part of them. Lines headed by an entry give the natural chain unless they say otherwise; changes in a name come on top. Residues count along the entry.
UniProt P23242: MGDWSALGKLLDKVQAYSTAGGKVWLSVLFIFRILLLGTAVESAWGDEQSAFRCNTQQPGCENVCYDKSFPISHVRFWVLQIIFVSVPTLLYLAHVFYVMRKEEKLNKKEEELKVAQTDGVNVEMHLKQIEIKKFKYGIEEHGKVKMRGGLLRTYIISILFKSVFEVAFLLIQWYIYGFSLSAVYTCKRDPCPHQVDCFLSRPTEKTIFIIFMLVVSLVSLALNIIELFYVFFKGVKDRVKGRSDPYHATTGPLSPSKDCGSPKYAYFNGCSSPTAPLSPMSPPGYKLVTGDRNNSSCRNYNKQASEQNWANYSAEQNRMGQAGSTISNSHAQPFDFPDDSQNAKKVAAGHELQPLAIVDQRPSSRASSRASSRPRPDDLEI
GST-Cx43CT(241-382) (mouse (primer names mCx43)): residues 241-382 of P23242
UniProt P16054: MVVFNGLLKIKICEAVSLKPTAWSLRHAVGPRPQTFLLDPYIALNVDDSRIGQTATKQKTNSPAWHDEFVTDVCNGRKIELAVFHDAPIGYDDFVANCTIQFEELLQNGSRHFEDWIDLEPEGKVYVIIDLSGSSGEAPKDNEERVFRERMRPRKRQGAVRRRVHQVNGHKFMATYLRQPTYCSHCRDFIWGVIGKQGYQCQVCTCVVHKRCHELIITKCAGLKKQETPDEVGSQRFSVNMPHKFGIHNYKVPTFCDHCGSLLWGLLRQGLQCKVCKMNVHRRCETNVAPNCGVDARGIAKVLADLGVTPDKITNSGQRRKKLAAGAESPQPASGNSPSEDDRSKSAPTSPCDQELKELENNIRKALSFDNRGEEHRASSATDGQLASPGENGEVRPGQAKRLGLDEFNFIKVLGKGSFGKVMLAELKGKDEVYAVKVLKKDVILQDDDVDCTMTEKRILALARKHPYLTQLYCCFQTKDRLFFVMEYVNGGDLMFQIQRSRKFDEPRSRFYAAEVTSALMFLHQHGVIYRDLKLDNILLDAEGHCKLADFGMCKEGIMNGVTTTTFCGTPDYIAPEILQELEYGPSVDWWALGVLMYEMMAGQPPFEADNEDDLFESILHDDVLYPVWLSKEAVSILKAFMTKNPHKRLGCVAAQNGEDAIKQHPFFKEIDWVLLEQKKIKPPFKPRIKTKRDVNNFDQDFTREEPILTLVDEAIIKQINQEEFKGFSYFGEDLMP
UniProt P28867: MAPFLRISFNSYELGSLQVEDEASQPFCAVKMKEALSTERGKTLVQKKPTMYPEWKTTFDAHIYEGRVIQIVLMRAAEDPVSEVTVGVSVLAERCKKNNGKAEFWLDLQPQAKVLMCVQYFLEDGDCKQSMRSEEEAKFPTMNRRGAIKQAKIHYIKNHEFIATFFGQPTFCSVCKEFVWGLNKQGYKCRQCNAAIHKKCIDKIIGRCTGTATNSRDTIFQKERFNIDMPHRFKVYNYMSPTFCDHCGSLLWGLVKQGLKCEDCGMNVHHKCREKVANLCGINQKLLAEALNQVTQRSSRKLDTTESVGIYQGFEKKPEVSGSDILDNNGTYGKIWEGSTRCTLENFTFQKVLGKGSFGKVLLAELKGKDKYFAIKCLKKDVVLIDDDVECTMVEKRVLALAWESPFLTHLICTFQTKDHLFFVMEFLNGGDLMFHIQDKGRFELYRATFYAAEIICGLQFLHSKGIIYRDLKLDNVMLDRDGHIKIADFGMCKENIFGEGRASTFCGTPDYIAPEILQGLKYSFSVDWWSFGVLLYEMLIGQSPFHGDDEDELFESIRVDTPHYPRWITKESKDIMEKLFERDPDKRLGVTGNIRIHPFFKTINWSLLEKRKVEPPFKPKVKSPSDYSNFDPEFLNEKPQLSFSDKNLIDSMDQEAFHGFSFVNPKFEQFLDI

What was measured:
[1] = molecular target: connexin43 (mouse (endogenous in MC3T3)) (UniProt P23242); test: co-IP; endogenous proteins in MC3T3 whole cell lysates (500 ug; IP buffer 50 mM Tris pH 8.0, 150 mM NaCl, 1.0% Triton-X-100), 2 ug antibody overnight at 4°C, protein A/G-agarose, five washes in cold PBS; western blot of supernatant and bead fractions; cells untreated or treated with 5 ng/ml FGF2 (0, 10, 20 min)
[2] = molecular target: PKCε (mouse (endogenous in MC3T3)) (UniProt P16054); test: as above
[3] = molecular target: protein kinase C-delta (mouse (endogenous in MC3T3)) (UniProt P28867); test: as above
[4] = molecular target: GST-Cx43CT(241-382) (mouse (primer names mCx43)) (UniProt P23242); test: pull-down; purified GST or GST-Cx43CT(241-382) crosslinked to Glutathione Sepharose 4B beads (25 ul) incubated with 100 ug MC3T3 whole cell extract, 4 hours at 4°C; five washes in 50 mM HEPES pH 7.5, 1 mM EDTA, 150 mM NaCl, 10% glycerol, 0.1% Tween-20, 0.5 mM DTT; western blot with anti-PKCδ; only the target purified

binding [1]	binding [2]	binding [3]	binding [4]	Substance
binds	–	–	–	PKCε (from UniProt P16054 1-737) (enzyme)
–	binds	binds	–	connexin43 (from UniProt P23242 1-382)
binds	–	–	binds	protein kinase C-delta (from UniProt P28867 1-674) (enzyme)
